Assay results as given in publication PMC10290989.
No constants are given. Whether binding was seen depends on the method and setting. In cells and extracts the contact can be indirect. Some results given as binding are weak or reduced against the parent protein; the word gives no strength.

Target: TRIM28 full-length, ectopically expressed, Q13263
Assay: co-IP; whole G.C. cell lysates in I.P. buffer (NP-40, 50 mM Tris-HCl pH 7.4, 50 mM EDTA, 150 mM NaCl); antibody 2 h at 4 °C, protein A/G agarose beads overnight at 4 °C; five washes; immunoblot; ectopically expressed or endogenous proteins
Settings: remark: other sources report otherwise

B1: TBK1, Q9UHD2 1-729 (protein)
chain: MQSTSNHLWLLSDILGQGATANVFRGRHKKTGDLFAIKVFNNISFLRPVDVQMREFEVLKKLNHKNIVKLFAIEEETTTRHKVLIMEFCPCGSLYTVLEEPSNAYGLPESEFLIVLRDVVGGMNHLRENGIVHRDIKPGNIMRVIGEDGQSVYKLTDFGAARELEDDEQFVSLYGTEEYLHPDMYERAVLRKDHQKKYGATVDLWSIGVTFYHAATGSLPFRPFEGPRRNKEVMYKIITGKPSGAISGVQKAENGPIDWSGDMPVSCSLSRGLQVLLTPVLANILEADQEKCWGFDQFFAETSDILHRMVIHVFSLQQMTAHKIYIHSYNTATIFHELVYKQTKIISSNQELIYEGRRLVLEPGRLAQHFPKTTEENPIFVVSREPLNTIGLIYEKISLPKVHPRYDLDGDASMAKAITGVVCYACRIASTLLLYQELMRKGIRWLIELIKDDYNETVHKKTEVVITLDFCIRNIEKTVKVYEKLMKINLEAAELGEISDIHTKLLRLSSSQGTIETSLQDIDSRLSPGGSLADAWAHQEGTHPKDRNVEKLQVLLNCMTEIYYQFKKDKAERRLAYNEEQIHKFDKQKLYYHATKAMTHFTDECVKKYEAFLNKSEEWIRKMLHLRKQLLSLTNQCFDIEEEVSKYQEYTNELQETLPQKMFTASSGIKHTMTPIYPSSNTLVEMTLGMKKLKEEMEGVVKELAENNHILERFGSLTMDGGLRNVDCL
binding: binds
